According to publication PMC7466635, “Identification of Quinazolinone Analogs Targeting CDK5 Kinase Activity and Glioblastoma Cell Proliferation” (Frontiers in Chemistry, 2020):
Results are given in words; binding and its absence hold for the method and conditions named. Some results given as binding are weak or reduced against the parent protein; the word gives no strength.

The chains behind the UniProt entries cited, without tags or fusion partners. Residues count along the entry.
UniProt Q15078, residues 99-307: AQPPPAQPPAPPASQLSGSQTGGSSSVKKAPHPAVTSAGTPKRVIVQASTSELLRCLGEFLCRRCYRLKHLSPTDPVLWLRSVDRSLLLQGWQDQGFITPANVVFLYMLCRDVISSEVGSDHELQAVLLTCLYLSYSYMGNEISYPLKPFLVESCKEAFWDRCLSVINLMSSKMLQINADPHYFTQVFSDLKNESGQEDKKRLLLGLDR

Molecular target: Cy3-labeled CDKCONF5 biosensor (CDKCONF5 (C157 C190 C269) : C53S/C83S/C94S/C117S/C290S) (human) (UniProt Q00535)
Test: other fluorescence titration; CDKCONF5-Cy3 incubated with 400 nM 6His-p25 and/or 4 uM quinazolines JMV5800 and JMV5884; both purified

## recombinant 6His-p25 (from UniProt Q15078 99-307) (domain or fragment)
  binding: binds
